Source: publication PMC5853926
No constants are given. Whether binding was seen depends on the method and setting. For some of these results: Binding seen in cells or lysates may run through a third protein. Some results given as binding are weak or reduced against the parent protein; the word gives no strength. For some of these results: Sequences can lack the tags named with a protein.

The chains behind the UniProt entries cited, without tags or fusion partners.
UniProt Q94AI6: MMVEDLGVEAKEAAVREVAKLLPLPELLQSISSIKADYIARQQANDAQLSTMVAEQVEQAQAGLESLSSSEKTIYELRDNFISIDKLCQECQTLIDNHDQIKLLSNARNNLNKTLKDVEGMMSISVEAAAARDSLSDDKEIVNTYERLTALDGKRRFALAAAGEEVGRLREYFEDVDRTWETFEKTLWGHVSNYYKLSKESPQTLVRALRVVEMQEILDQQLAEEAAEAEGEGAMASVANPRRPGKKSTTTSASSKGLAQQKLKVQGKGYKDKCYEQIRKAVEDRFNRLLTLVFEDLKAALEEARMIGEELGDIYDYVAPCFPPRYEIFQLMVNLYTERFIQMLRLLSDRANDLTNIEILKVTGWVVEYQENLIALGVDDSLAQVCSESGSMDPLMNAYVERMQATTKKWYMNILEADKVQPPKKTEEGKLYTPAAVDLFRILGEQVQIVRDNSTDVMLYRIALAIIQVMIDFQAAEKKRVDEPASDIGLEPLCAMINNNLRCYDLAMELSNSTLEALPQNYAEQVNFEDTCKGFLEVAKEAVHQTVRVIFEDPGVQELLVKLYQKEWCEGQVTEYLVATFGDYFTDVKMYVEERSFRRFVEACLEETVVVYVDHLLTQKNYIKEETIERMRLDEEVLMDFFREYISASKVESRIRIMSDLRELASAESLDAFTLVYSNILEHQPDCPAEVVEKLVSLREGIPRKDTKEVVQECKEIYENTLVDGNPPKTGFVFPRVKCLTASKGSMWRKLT

B1: RPM1 … PROTEIN 4 (RIN4), full-length, two-hybrid prey (protein, UniProt Q8GYN5 1-211)
chain: MARSNVPKFGNWEAEENVPYTAYFDKARKTRAPGSKIMNPNDPEYNSDSQSQAPPHPPSSRTKPEQVDTVRRSREHMRSREESELKQFGDAGGSSNEAANKRQGRASQNNSYDNKSPLHKNSYDGTGKSRPKPTNLRADESPEKVTVVPKFGDWDENNPSSADGYTHIFNKVREERSSGANVSGSSRTPTHQSSRNPNNTSSCCCFGFGGK
B2: HA-tagged EXO70B1 (protein, UniProt Q9FGH9 1-624)
chain: MAENGEEKLLAVARHIAKTLGHNESMADDILQIFSNFDGRFSREKLAEGQAGEDGSGVATLERALNSIDGQISRFVAADQPIWADPADSAAFLDTIDELVAIIREWSPMASEKPIGICLTRADDMMQQAMFRIEEEFRSLMERGAESFGLNPQGDAGAMNHRFDSEEEEDDDRDFNNGDDIQIPVAQPLTDYDLIIDALPSATINDLHEMAKRMLGAGFGKACSHVYSSCRREFLEESMSRLGLQKLSIEEVHKMPWQELEDEIDRWIKAANVALRILFPSERRLCDRVFFGFSSAADLSFMEVCRGSTIQLLNFADAIAIGSRSPERLFKVLDVFETMRDLMPEFESVFSDQFCSVLRNEAVTIWKRLGEAIRGIFMELENLIRRDPAKAAVPGGGLHPITRYVMNYLRAACRSRQTLEQVFEESNGVPSKDSTLLTVQMSWIMELLESNLEVKSKVYKDPALCYVFLMNNGRYIVQKVKDGDLGLLLGDDWIRKHNVKVKQYHMNYQRSSWNKMLGLLKVDNTAAGMNGLGKTMKEKLKQFNIQFDEICKVHSTWVVFDEQLKEELKISLARLLVPAYGSFIGRFQNLGDIGKNADKYIKYGVEDIEARINELFKGTTTGRK

Columns and labels:
[1] = molecular target: T1, EXO70B1 exocyst subunit, two-hybrid bait (Arabidopsis) (UniProt Q9FGH9); test: two-hybrid; RIN4 constructs and NOI6 in pGADT7 (prey), exocyst subunits in bait vectors; yeast plated in a 10x dilution series from OD600=0.1 on plates without leucine, tryptophan, histidine and adenine
T1 sequence: B2 chain

[2] = molecular target: T2, EXO70B2 exocyst subunit, two-hybrid bait (Arabidopsis) (UniProt Q9LMJ4); test: as above
T2 sequence: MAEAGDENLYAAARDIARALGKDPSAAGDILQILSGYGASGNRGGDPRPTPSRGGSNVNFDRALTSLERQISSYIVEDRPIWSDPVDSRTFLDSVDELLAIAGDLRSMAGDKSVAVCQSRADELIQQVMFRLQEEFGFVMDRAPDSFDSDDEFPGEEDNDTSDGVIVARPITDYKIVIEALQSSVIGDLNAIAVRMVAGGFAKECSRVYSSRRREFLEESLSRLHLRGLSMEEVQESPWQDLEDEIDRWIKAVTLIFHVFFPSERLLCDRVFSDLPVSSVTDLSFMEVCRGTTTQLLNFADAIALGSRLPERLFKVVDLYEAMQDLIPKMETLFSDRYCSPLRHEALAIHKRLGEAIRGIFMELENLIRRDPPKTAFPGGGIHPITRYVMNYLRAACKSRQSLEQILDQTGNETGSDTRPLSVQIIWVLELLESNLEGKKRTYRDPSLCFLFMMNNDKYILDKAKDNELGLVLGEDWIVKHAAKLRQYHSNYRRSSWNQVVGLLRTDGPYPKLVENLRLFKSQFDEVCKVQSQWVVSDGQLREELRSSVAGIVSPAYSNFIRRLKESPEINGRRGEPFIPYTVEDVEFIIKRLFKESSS

[3] = molecular target: SEC6 core exocyst subunit, two-hybrid bait (Arabidopsis) (UniProt Q94AI6); test: as above
[4] = molecular target: T3, GFP–RIN4 (Arabidopsis) (UniProt Q8GYN5); test: co-IP; proteins transiently co-expressed in N. benthamiana leaves; anti-GFP magnetic beads (µMACS GFP Isolation Kit), extraction buffer with 0.1% Triton X-100; EXO70B1 detected with anti-HA antibody
T3 sequence: B1 chain

Row | Binder | binding [1] | binding [2] | binding [3] | binding [4]
1 | B1 | binds | binds weakly | no binding | –
2 | B2 | – | – | – | binds
